Experimental data taken from patent US20200069552A1, “COSMETIC AND/OR DERMATOLOGICAL COMPOSITION, AND USES THEREOF IN THE COSMETIC FIELD AND IN THE ADJUVANT TREATMENT OF DERMATOLOGICAL PATHOLOGIES” (ISTITUTO GANASSINI S.P.A. DI RICERCHE BIOCHIMICHE, priority 2017, published 2020).

Assay: Organoleptic evaluation by a panel of 10 people
Parameters: species or system human
[1] = 1=very unpleasant, 2=unpleasant, 3=sufficient, 4=good, 5=excellent

CC(=O)Oc1c(C)c(C)c2c(c1C)CCC(C)(CCC[C@H](C)CCC[C@H](C)CCCC(C)C)O2 (some centres unmarked) [Comp A, Vitamin E acetate]
Absorption, mean score [1]: 1.30 | Likeliness, mean score [1]: 1.30 | Spreadability, mean score [1]: 1.60 | Texture, mean score [1]: 1.70 | Tackiness, mean score (stickiness 1=excessive, 2=average, 3=poor, 4=absent): 1.30
